Patent US11534410B2, “Amphotericin loaded PEGylated lipid nanoparticles and methods of use” (University of Mississippi, priority 2018, dated 2022)
Values after ≈ are worked out from the molar mass of the structure shown.

System: Aspergillus fumigatus (ATCC 204305)
Assay: Microdilution (CLSI) antifungal assay
Type: cell-based
Conditions: Day1

Question: `C[C@@H]1[C@H](O)[C@@H](C)/C=C/C=C/C=C/C=C/C=C/C=C/C=C/[C@H](O[C@@H]2O[C@H](C)[C@@H](O)[C@H](N)[C@@H]2O)C[C@@H]2O[C@](O)(C[C@@H](O)C[C@@H](O)[C@H](O)CC[C@@H](O)C[C@@H](O)CC(=O)O[C@H]1C)C[C@H](O)[C@H]2C(=O)O` [AmB, Amphotericin B] was tested. Which MIC did it give?
Answer: 2.5 µg/mL (≈ 2.71 µM)
